These are yes or no findings as the source states them, for the method shown. In cells and extracts the contact can be indirect. Some binding calls cover weakened binding; strength is not graded here.
Target: human FADD death domain fused to a fluorescent protein (human) (UniProt Q13158)
Test: FRET or BRET; flow cytometric detection of FRET between CFP and YFP fusion proteins in living HEK293T cells, 48 h post-transfection, 447/488 nm dual laser excitation; cells gated to comparable expression of the CFP and YFP fusion proteins

Chains of the proteins cited; added tags and fusions are not shown. Lines headed by an entry give the natural chain unless they say otherwise; changes in a name come on top. A line that says so, or that is headed by a name, gives the form on record, which may keep a tag or linker. Residues count along the entry.
UniProt Q13158, residues 97-181: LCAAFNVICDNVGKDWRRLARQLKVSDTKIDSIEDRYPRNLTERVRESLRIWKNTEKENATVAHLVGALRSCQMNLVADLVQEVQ
full-length human wild-type Fas fused to a fluorescent protein (P25445, residues 26-335): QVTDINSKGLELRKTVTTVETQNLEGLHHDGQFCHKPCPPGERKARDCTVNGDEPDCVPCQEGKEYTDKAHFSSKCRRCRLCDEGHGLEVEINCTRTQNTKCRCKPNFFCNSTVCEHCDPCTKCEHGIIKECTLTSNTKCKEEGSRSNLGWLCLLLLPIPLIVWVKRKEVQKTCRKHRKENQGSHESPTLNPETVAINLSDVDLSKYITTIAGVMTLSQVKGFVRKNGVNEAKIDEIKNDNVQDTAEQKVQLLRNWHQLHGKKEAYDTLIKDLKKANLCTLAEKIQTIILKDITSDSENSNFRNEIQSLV
full-length human Fas C199V palmitoylation mutant fused to a fluorescent protein (P25445, form named): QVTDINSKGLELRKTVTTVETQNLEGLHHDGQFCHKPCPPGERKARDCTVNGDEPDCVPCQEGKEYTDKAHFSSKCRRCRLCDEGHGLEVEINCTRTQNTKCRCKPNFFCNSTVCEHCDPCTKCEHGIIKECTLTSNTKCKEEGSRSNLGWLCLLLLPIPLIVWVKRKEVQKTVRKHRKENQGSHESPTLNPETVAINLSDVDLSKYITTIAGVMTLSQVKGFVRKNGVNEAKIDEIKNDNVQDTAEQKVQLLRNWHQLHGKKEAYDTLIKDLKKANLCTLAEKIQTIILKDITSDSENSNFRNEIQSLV

| Substance | binding |
| --- | --- |
| full-length human Fas C199V palmitoylation mutant fused to a fluorescent protein (from UniProt P25445 26-335) (receptor) | binds |
| full-length human wild-type Fas fused to a fluorescent protein (from UniProt P25445 26-335) (receptor) | binds |
